## Results from one PubChem assay

From PubChem BioAssay record AID1259360 (NCATS, 2018).

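Luciferase light output from three-dimensional SN12C cultures after two days of treatment, used to gauge cell survival across a concentration series. The number is the fitted half-maximal potency (AC50) for loss of spheroid viability; lower values mean a more potent compound. Calls come from curve class plus fitted LogAC50, turned into a score: 40 to 100 is active, 1 to 39 is inconclusive, 0 is inactive.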

Values are in nM. Every entry below has the call inconclusive. These entries are mostly ones the record files as inconclusive; other results of the assay are not listed here. Potencies fitted to partial, single-point or poorly fitting curves are rough. Some entries filed as inconclusive have a full curve. The first word of each remark tells which way the curve ran; it can be opposite to the aim of the assay. Activity scores are not listed here.

Compound	fitted potency (nM)	curve
Cc1c(C(=O)Nc2cccc(C(F)(F)F)c2)cc(-c2ccccc2)n1CCCN1CCOCC1	33173	cytotoxic, single point
Cc1ccccc1-n1c(Cn2cnc3c(N)ncnc32)nc2cccc(C)c2c1=O	23484	cytotoxic, partial curve, poor fit
CC(O)(CS(=O)(=O)c1ccc(F)cc1)C(=O)Nc1ccc(C#N)c(C(F)(F)F)c1 (stereo not drawn)	20930	cytotoxic, partial curve, poor fit
COc1ccc2c(c[n+](C)c3c4cc5c(cc4ccc23)OCO5)c1OC	29565	cytotoxic, single point
CNC(=O)c1ccc(N2C(=S)N(c3ccc(C#N)c(C(F)(F)F)c3)C(=O)C23CCC3)cc1F	20930	cytotoxic, partial curve, poor fit
COc1ccc(C(=O)c2c(C)n(CCN3CCOCC3)c3ccccc23)cc1	37.2	rising, full curve, poor fit
COC1(CS(=O)c2ccccc2)CCN(CCc2c[nH]c3ccc(F)cc23)CC1 (stereo not drawn)	14817	cytotoxic, partial curve, poor fit
C=CCON=C(C[C@H]1O[C@@H]2O[C@]3(C)CC[C@@H]4[C@H](C)CC[C@@H]([C@H]1C)[C@@]24OO3)[C@H]1O[C@@H]2O[C@]3(C)CC[C@H]4[C@H](C)CC[C@@H]([C@@H]1C)[C@@]24OO3	74.3	cytotoxic, partial curve, poor fit
Cc1cc(SCc2sc(-c3ccc(C(F)(F)F)c(F)c3)nc2C)ccc1OCC(=O)O	4.2	rising, full curve, poor fit
C[C@@H]1[C@@H](CC(C[C@H]2O[C@@H]3O[C@]4(C)CC[C@@H]5[C@H](C)CC[C@@H]([C@H]2C)[C@@]35OO4)C[S+](=O)([O-])c2ccc(COC(=O)N(C)C)cc2)O[C@@H]2O[C@]3(C)CC[C@H]4[C@H](C)CC[C@@H]1[C@@]24OO3 (stereo partly drawn)	46.9	cytotoxic, full curve

For reference, 2 entries once more:

Compound,fitted potency (nM),curve
COC1(CS(=O)c2ccccc2)CCN(CCc2c[nH]c3ccc(F)cc23)CC1 (stereo not drawn),14817,"cytotoxic, partial curve, poor fit"
CNC(=O)c1ccc(N2C(=S)N(c3ccc(C#N)c(C(F)(F)F)c3)C(=O)C23CCC3)cc1F,20930,"cytotoxic, partial curve, poor fit"